Here are results for one substance from publication PMC5004899, “Architecture of the caveolar coat complex” (Journal of Cell Science, 2016).

Sequences of proteins named here, by UniProt entry; tags and fusion partners are left off.
UniProt Q03135: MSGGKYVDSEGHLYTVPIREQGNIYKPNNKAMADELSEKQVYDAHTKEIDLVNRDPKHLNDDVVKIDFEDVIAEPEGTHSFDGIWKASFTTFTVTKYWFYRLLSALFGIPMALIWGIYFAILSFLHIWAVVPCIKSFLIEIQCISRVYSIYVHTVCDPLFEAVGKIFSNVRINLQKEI

This assay has as its target T1, cavin-3–EGFP-10×His (UniProt Q969G5).
T1 sequence: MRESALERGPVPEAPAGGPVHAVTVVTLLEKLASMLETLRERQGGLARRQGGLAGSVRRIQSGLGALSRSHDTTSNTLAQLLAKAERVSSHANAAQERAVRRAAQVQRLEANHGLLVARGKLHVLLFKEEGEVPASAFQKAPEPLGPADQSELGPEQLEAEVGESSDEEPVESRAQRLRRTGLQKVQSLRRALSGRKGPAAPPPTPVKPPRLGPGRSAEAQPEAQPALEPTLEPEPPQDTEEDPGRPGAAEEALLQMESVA
Description: pull-down; live HeLa cells cross-linked with 2 mM DSP; lysate in 0.5% Triton X-100, 1% octyl-glucoside; 20-40% sucrose gradient, fractions 7-10 pooled; TALON metal affinity resin by the 10×His of cavin-3, 4 h at 4°C, eluted with 400 mM imidazole; fully reduced; silver staining and western blots. A general note: A western blot detects proteins with antibodies after separation by electrophoresis.

These are yes or no findings as the source states them, for the method shown. Binding seen in cells or lysates may run through a third protein. Some entries that bind do so weakly or less than the wild type. Sequences can lack the tags named with a protein.

On to caveolin-1 (from UniProt Q03135 1-178), for which the binding entry is “binds”.
